Read-outs that look alike come from different tables or passages of the source. These are yes or no findings as the source states them, for the method shown. In cells and extracts the contact can be indirect. These calls come from enrichment with a bait or labelling near it, and not all partners need be listed. Tags and fused reporters may be left off the sequences shown.

Protein sequences, listed by entry. Tags and fused reporters are not part of them.
UniProt P06748: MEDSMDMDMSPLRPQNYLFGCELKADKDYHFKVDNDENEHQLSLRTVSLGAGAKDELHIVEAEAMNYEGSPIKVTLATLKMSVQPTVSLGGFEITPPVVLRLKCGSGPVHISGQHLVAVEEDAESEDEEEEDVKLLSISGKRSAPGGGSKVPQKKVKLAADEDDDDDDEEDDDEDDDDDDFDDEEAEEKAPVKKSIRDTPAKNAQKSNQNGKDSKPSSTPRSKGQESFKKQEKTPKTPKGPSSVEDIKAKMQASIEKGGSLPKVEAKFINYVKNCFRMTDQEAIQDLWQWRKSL
UniProt Q9BUA3: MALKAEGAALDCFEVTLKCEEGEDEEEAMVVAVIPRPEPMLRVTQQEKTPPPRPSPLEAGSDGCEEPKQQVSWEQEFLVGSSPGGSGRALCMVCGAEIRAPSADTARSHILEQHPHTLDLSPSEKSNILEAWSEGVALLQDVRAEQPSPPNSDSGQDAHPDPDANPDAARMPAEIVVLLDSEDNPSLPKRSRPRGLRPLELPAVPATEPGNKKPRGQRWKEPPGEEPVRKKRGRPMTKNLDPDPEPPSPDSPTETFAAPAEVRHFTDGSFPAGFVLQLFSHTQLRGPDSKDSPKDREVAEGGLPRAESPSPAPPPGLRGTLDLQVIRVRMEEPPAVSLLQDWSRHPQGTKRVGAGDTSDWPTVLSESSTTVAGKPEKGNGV
UniProt Q01105: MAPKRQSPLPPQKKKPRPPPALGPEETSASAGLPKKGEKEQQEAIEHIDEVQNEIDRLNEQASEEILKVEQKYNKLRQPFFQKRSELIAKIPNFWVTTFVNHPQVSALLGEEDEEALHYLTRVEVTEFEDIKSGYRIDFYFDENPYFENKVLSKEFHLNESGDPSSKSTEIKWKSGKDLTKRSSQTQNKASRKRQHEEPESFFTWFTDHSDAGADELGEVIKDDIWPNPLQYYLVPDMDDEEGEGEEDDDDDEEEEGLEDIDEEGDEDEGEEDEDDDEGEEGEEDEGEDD

The target of experiment [1] is T1, FLAG-BirA*-tagged hTRMT2A WT (tRNA methyltransferase 2 homolog A) (human) (UniProt Q8IZ69).
T1 sequence: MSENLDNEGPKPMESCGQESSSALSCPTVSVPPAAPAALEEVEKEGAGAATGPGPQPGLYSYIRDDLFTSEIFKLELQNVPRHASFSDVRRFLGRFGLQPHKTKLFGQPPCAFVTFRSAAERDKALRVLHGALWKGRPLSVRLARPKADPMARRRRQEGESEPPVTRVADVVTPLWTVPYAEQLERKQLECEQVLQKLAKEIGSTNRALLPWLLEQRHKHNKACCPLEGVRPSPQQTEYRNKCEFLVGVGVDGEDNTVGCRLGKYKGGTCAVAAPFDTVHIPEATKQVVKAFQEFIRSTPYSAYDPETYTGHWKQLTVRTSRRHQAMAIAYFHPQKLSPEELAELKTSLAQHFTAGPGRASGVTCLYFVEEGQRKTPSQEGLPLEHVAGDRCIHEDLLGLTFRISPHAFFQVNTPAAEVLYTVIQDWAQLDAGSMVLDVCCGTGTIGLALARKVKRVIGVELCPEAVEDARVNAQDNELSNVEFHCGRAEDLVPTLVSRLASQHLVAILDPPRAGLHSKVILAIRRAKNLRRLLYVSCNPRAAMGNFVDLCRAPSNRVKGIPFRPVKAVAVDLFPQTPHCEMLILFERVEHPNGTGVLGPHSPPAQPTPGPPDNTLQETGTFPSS
Briefly: proximity labelling; BioID in HEK 293T cells: doxycycline-induced BirA*-tagged hTRMT2A WT or CDM, 50 uM biotin for 16-18 h, biotinylated proteins captured on streptavidin magnetic beads, LC-MS/MS; BirA* tag alone as background; five replicates.

The target of experiment [2] is T2, FLAG-tagged hTRMT2A WT (human) (UniProt Q8IZ69).
T2 sequence: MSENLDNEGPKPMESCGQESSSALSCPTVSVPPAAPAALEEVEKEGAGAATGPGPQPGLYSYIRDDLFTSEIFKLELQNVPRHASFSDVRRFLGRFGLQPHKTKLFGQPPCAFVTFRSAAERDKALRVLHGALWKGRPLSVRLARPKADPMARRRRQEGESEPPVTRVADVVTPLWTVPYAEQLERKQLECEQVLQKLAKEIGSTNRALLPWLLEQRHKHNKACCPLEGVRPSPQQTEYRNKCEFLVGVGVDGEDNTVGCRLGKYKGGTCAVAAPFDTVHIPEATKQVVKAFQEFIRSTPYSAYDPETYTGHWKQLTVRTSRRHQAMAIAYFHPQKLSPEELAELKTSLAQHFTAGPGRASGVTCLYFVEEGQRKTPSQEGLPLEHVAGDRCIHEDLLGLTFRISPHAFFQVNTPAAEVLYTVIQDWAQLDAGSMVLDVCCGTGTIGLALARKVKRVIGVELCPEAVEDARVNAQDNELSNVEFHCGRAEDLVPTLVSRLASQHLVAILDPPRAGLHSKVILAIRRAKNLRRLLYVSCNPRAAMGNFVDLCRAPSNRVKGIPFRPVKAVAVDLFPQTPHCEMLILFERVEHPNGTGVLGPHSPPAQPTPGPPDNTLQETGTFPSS
Briefly: affinity purification with mass spectrometry; Co-IP from HEK 293T lysate: doxycycline-induced FLAG-tagged hTRMT2A WT or CDM captured on anti-FLAG M2 magnetic beads, 1 h at 4°C, washes with 250 mM NaCl, LC-MS/MS; FLAG tag alone as background; five replicates.

Experiment [3] addresses T3, FLAG-BirA*-tagged hTRMT2A CDM (catalytic death mutant) (human) (UniProt Q8IZ69).
T3 sequence: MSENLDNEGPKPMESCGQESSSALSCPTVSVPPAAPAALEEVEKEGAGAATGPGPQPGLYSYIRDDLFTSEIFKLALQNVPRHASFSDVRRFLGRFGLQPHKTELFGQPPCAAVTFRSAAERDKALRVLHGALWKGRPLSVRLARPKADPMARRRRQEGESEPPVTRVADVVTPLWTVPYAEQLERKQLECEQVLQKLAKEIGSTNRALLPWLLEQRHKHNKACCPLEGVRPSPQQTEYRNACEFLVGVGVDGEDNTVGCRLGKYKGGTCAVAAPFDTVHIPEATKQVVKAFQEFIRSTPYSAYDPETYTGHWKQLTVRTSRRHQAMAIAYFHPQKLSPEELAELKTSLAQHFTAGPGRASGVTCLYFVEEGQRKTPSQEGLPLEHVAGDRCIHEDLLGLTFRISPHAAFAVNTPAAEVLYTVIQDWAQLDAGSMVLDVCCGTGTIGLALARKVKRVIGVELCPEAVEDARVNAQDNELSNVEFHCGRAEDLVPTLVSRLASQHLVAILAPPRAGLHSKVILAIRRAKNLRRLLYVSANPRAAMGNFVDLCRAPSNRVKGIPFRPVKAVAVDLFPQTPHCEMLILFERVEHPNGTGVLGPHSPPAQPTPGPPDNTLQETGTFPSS
Briefly: proximity labelling; BioID in HEK 293T cells: doxycycline-induced BirA*-tagged hTRMT2A WT or CDM, 50 uM biotin for 16-18 h, biotinylated proteins captured on streptavidin magnetic beads, LC-MS/MS; BirA* tag alone as background; five replicates.

In experiment [4] the target is T4, FLAG-tagged hTRMT2A CDM (catalytic death mutant) (human) (UniProt Q8IZ69).
T4 sequence: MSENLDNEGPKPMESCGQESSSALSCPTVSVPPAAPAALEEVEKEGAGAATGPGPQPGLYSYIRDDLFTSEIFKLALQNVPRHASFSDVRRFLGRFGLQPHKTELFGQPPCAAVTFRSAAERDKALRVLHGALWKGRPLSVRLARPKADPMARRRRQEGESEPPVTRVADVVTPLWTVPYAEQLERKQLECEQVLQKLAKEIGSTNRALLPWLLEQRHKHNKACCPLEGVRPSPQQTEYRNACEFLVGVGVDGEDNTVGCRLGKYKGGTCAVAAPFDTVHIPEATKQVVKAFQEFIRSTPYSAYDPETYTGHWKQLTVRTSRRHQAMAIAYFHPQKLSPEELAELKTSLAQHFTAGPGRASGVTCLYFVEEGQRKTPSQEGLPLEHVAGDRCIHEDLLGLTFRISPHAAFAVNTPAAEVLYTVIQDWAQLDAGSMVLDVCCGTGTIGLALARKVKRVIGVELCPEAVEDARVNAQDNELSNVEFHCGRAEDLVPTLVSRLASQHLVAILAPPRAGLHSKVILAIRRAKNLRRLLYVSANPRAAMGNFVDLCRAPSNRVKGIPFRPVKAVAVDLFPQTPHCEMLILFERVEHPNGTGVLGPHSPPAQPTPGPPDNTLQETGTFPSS
Description: affinity purification with mass spectrometry; Co-IP from HEK 293T lysate: doxycycline-induced FLAG-tagged hTRMT2A WT or CDM captured on anti-FLAG M2 magnetic beads, 1 h at 4°C, washes with 250 mM NaCl, LC-MS/MS; FLAG tag alone as background; five replicates.

Experiment [5] has as its target T3, FLAG-BirA*-tagged hTRMT2A CDM (catalytic death mutant) (human). Description: proximity labelling; BioID in HEK 293T cells: doxycycline-induced BirA*-tagged hTRMT2A WT or CDM, 50 uM biotin for 16-18 h, biotinylated proteins captured on streptavidin magnetic beads, LC-MS/MS; BirA* tag alone as background; five replicates. This is another data set of the same source.

For experiment [6], the target named is T1, FLAG-BirA*-tagged hTRMT2A WT (tRNA methyltransferase 2 homolog A) (human). The experiment is described as above. This is another data set of the same source.

Regarding NPM1 (from UniProt P06748 1-294), the binding entry in experiment [1] and in experiment [2] was “binds” throughout.
With SPINDOC (from UniProt Q9BUA3 1-381), the binding result in experiment [3], in experiment [1], in experiment [4] and in experiment [2] was “binds” in each case.
For the molecule SET (from UniProt Q01105 1-290), the binding entry in experiment [1] and in experiment [2] was “binds” each time.

B1: RISC loading complex subunit TARBP2 (protein, UniProt Q15633 1-366)
chain: MSEEEQGSGTTTGCGLPSIEQMLAANPGKTPISLLQEYGTRIGKTPVYDLLKAEGQAHQPNFTFRVTVGDTSCTGQGPSKKAAKHKAAEVALKHLKGGSMLEPALEDSSSFSPLDSSLPEDIPVFTAAAAATPVPSVVLTRSPPMELQPPVSPQQSECNPVGALQELVVQKGWRLPEYTVTQESGPAHRKEFTMTCRVERFIEIGSGTSKKLAKRNAAAKMLLRVHTVPLDARDGNEVEPDDDHFSIGVGSRLDGLRNRGPGCTWDSLRNSVGEKILSLRSCSLGSLGALGPACCRVLSELSEEQAFHVSYLDIEELSLSGLCQCLVELSTQPATVCHGSATTREAARGEAARRALQYLKIMAGSK
For B1, the binding entry in experiment [5], in experiment [6], in experiment [4] and in experiment [2] was “binds” each time.

B2: LARP7 (protein, UniProt Q4G0J3 1-582)
chain: METESGNQEKVMEEESTEKKKEVEKKKRSRVKQVLADIAKQVDFWFGDANLHKDRFLREQIEKSRDGYVDISLLVSFNKMKKLTTDGKLIARALRSSAVVELDLEGTRIRRKKPLGERPKDEDERTVYVELLPKNVNHSWIERVFGKCGNVVYISIPHYKSTGDPKGFAFVEFETKEQAAKAIEFLNNPPEEAPRKPGIFPKTVKNKPIPALRVVEEKKKKKKKKGRMKKEDNIQAKEENMDTSNTSISKMKRSRPTSEGSDIESTEPQKQCSKKKKKRDRVEASSLPEVRTGKRKRSSSEDAESLAPRSKVKKIIQKDIIKEASEASKENRDIEISTEEEKDTGDLKDSSLLKTKRKHKKKHKERHKMGEEVIPLRVLSKSEWMDLKKEYLALQKASMASLKKTISQIKSESEMETDSGVPQNTGMKNEKTANREECRTQEKVNATGPQFVSGVIVKIISTEPLPGRKQVRDTLAAISEVLYVDLLEGDTECHARFKTPEDAQAVINAYTEINKKHCWKLEILSGDHEQRYWQKILVDRQAKLNQPREKKRGTEKLITKAEKIRLAKTQQASKHIRFSEYD
Consider B2, for which the binding result in experiment [6] and in experiment [2] was “binds” in each case.

B3: UPF1 (protein, UniProt Q92900 1-1129)
chain: MSVEAYGPSSQTLTFLDTEEAELLGADTQGSEFEFTDFTLPSQTQTPPGGPGGPGGGGAGGPGGAGAGAAAGQLDAQVGPEGILQNGAVDDSVAKTSQLLAELNFEEDEEDTYYTKDLPIHACSYCGIHDPACVVYCNTSKKWFCNGRGNTSGSHIVNHLVRAKCKEVTLHKDGPLGETVLECYNCGCRNVFLLGFIPAKADSVVVLLCRQPCASQSSLKDINWDSSQWQPLIQDRCFLSWLVKIPSEQEQLRARQITAQQINKLEELWKENPSATLEDLEKPGVDEEPQHVLLRYEDAYQYQNIFGPLVKLEADYDKKLKESQTQDNITVRWDLGLNKKRIAYFTLPKTDSGNEDLVIIWLRDMRLMQGDEICLRYKGDLAPLWKGIGHVIKVPDNYGDEIAIELRSSVGAPVEVTHNFQVDFVWKSTSFDRMQSALKTFAVDETSVSGYIYHKLLGHEVEDVIIKCQLPKRFTAQGLPDLNHSQVYAVKTVLQRPLSLIQGPPGTGKTVTSATIVYHLARQGNGPVLVCAPSNIAVDQLTEKIHQTGLKVVRLCAKSREAIDSPVSFLALHNQIRNMDSMPELQKLQQLKDETGELSSADEKRYRALKRTAERELLMNADVICCTCVGAGDPRLAKMQFRSILIDESTQATEPECMVPVVLGAKQLILVGDHCQLGPVVMCKKAAKAGLSQSLFERLVVLGIRPIRLQVQYRMHPALSAFPSNIFYEGSLQNGVTAADRVKKGFDFQWPQPDKPMFFYVTQGQEEIASSGTSYLNRTEAANVEKITTKLLKAGAKPDQIGIITPYEGQRSYLVQYMQFSGSLHTKLYQEVEIASVDAFQGREKDFIILSCVRANEHQGIGFLNDPRRLNVALTRARYGVIIVGNPKALSKQPLWNHLLNYYKEQKVLVEGPLNNLRESLMQFSKPRKLVNTINPGARFMTTAMYDAREAIIPGSVYDRSSQGRPSSMYFQTHDQIGMISAGPSHVAAMNIPIPFNLVMPPMPPPGYFGQANGPAAGRGTPKGKTGRGGRQKNRFGLPGPSQTNLPNSQASQDVASQPFSQGALTQGYISMSQPSQMSQPGLSQPELSQDSYLGDEFKSQIDVALSQDSTYQGERAYQHGGVTGLSQY
B3: the binding entry in experiment [6] and in experiment [2] was “binds” each time.

B4: PPM1G (protein, UniProt O15355 1-546)
chain: MGAYLSQPNTVKCSGDGVGAPRLPLPYGFSAMQGWRVSMEDAHNCIPELDSETAMFSVYDGHGGEEVALYCAKYLPDIIKDQKAYKEGKLQKALEDAFLAIDAKLTTEEVIKELAQIAGRPTEDEDEKEKVADEDDVDNEEAALLHEEATMTIEELLTRYGQNCHKGPPHSKSGGGTGEEPGSQGLNGEAGPEDSTRETPSQENGPTAKAYTGFSSNSERGTEAGQVGEPGIPTGEAGPSCSSASDKLPRVAKSKFFEDSEDESDEAEEEEEDSEECSEEEDGYSSEEAENEEDEDDTEEAEEDDEEEEEEMMVPGMEGKEEPGSDSGTTAVVALIRGKQLIVANAGDSRCVVSEAGKALDMSYDHKPEDEVELARIKNAGGKVTMDGRVNGGLNLSRAIGDHFYKRNKNLPPEEQMISALPDIKVLTLTDDHEFMVIACDGIWNVMSSQEVVDFIQSKISQRDENGELRLLSSIVEELLDQCLAPDTSGDGTGCDNMTCIIICFKPRNTAELQPESGKRKLEEVLSTEGAEENGNSDKKKKAKRD
Turning to B4, the binding entry in experiment [6] and in experiment [2] was “binds” throughout.

The record behind these values is publication PMC10484741, “Human TRMT2A methylates tRNA and contributes to translation fidelity”.
